Shown are survivors of the treated group in tumour-free mice. Counts of survivors are from the toxicity check (mostly the fifth day) where no day follows; animals may have died later. Schedules are NCI's codes, read here as Q, the interval in days (D) or hours (H), X, the number of doses. Some entries were tested several times; the results are listed from low to high.
Test system: B6D2F1 mice, nontumored toxicity test, survival
Assay: NCI In Vivo Anticancer Drug Screen. Data for tumor model Nontumored Animals (Toxicity Test) in B6D2F1 (BDF1) mice
Conditions: vehicle: saline

NC(C/[N+]([O-])=N/O)C(=O)O (configuration not stated)
survivor count (dose: 8.0 mg/kg/injection, schedule: Q01DX009 (ip)): 8 of 8
survivor count (dose: 8.0 mg/kg/injection, schedule: Q01DX009 (oral)): 8 of 8
survivor count (dose: 8.0 mg/kg/injection, schedule: Q03HX008 (ip)): 8 of 8
survivor count (dose: 8.0 mg/kg/injection, schedule: Q03HX016 (ip)): 8 of 8
survivor count (dose: 8.0 mg/kg/injection, schedule: Q03HX024 (ip)): 8 of 8
survivor count (dose: 16.0 mg/kg/injection, schedule: Q01DX009 (ip)): 8 of 8
survivor count (dose: 16.0 mg/kg/injection, schedule: Q01DX009 (oral)): 8 of 8
survivor count (dose: 16.0 mg/kg/injection, schedule: Q01DX009 (sc)): 8 of 8
survivor count (dose: 16.0 mg/kg/injection, schedule: Q03HX008 (ip)): 7 of 8
survivor count (dose: 16.0 mg/kg/injection, schedule: Q03HX016 (ip)): 8 of 8
survivor count (dose: 16.0 mg/kg/injection, schedule: Q03HX024 (ip)): 8 of 8
survivor count (dose: 32.0 mg/kg/injection, schedule: Q01DX001 (ip)): 8 of 8
survivor count (dose: 32.0 mg/kg/injection, schedule: Q01DX009 (ip)): 8 of 8
survivor count (dose: 32.0 mg/kg/injection, schedule: Q01DX009 (oral)): 8 of 8
survivor count (dose: 32.0 mg/kg/injection, schedule: Q01DX009 (sc)): 8 of 8
survivor count (dose: 32.0 mg/kg/injection, schedule: Q03HX008 (ip)): 8 of 8
survivor count (dose: 32.0 mg/kg/injection, schedule: Q03HX016 (ip)): 8 of 8
survivor count (dose: 32.0 mg/kg/injection, schedule: Q03HX024 (ip)): 8 of 8
survivor count (dose: 32.0 mg/kg/injection, schedule: Q04DX003 (ip)): 8 of 8
survivor count (dose: 32.0 mg/kg/injection, schedule: Q08DX002 (ip)): 8 of 8
survivor count (dose: 64.0 mg/kg/injection, schedule: Q01DX001 (ip)): 8 of 8
survivor count (dose: 64.0 mg/kg/injection, schedule: Q01DX001 (oral)): 8 of 8
survivor count (dose: 64.0 mg/kg/injection, schedule: Q01DX001 (sc)): 8 of 8
survivor count (dose: 64.0 mg/kg/injection, schedule: Q01DX009 (ip)): 8 of 8
survivor count (dose: 64.0 mg/kg/injection, schedule: Q01DX009 (oral)): 7 of 8 and 8 of 8
survivor count (dose: 64.0 mg/kg/injection, schedule: Q01DX009 (sc)): 8 of 8
survivor count (dose: 64.0 mg/kg/injection, schedule: Q03HX008 (ip)): 8 of 8
survivor count (dose: 64.0 mg/kg/injection, schedule: Q03HX016 (ip)): 8 of 8
survivor count (dose: 64.0 mg/kg/injection, schedule: Q03HX024 (ip)): 8 of 8
survivor count (dose: 64.0 mg/kg/injection, schedule: Q04DX003 (ip)): 8 of 8
survivor count (dose: 64.0 mg/kg/injection, schedule: Q04DX003 (oral)): 8 of 8
survivor count (dose: 64.0 mg/kg/injection, schedule: Q08DX002 (ip)): 8 of 8
survivor count (dose: 128.0 mg/kg/injection, schedule: Q01DX001 (ip)): 8 of 8
survivor count (dose: 128.0 mg/kg/injection, schedule: Q01DX001 (oral)): 8 of 8
survivor count (dose: 128.0 mg/kg/injection, schedule: Q01DX001 (sc)): 8 of 8
survivor count (dose: 128.0 mg/kg/injection, schedule: Q01DX009 (ip)): 8 of 8
survivor count (dose: 128.0 mg/kg/injection, schedule: Q01DX009 (oral)): 8 of 8
survivor count (dose: 128.0 mg/kg/injection, schedule: Q01DX009 (sc)): 8 of 8
survivor count (dose: 128.0 mg/kg/injection, schedule: Q03HX008 (ip)): 8 of 8
survivor count (dose: 128.0 mg/kg/injection, schedule: Q03HX016 (ip)): 8 of 8
survivor count (dose: 128.0 mg/kg/injection, schedule: Q03HX024 (ip)): 8 of 8
survivor count (dose: 128.0 mg/kg/injection, schedule: Q04DX003 (ip)): 8 of 8
survivor count (dose: 128.0 mg/kg/injection, schedule: Q04DX003 (oral)): 8 of 8
survivor count (dose: 128.0 mg/kg/injection, schedule: Q04DX003 (sc)): 8 of 8
survivor count (dose: 128.0 mg/kg/injection, schedule: Q08DX002 (ip)): 8 of 8
survivor count (dose: 256.0 mg/kg/injection, schedule: Q01DX001 (ip)): 8 of 8
survivor count (dose: 256.0 mg/kg/injection, schedule: Q01DX001 (oral)): 8 of 8
survivor count (dose: 256.0 mg/kg/injection, schedule: Q01DX001 (sc)): 8 of 8
survivor count (dose: 256.0 mg/kg/injection, schedule: Q01DX009 (ip)): 3 of 8
survivor count (dose: 256.0 mg/kg/injection, schedule: Q01DX009 (oral)): 2 of 8
survivor count (dose: 256.0 mg/kg/injection, schedule: Q01DX009 (sc)): 5 of 8
survivor count (dose: 256.0 mg/kg/injection, schedule: Q03HX008 (ip)): 8 of 8
survivor count (dose: 256.0 mg/kg/injection, schedule: Q03HX016 (ip)): 8 of 8
survivor count (dose: 256.0 mg/kg/injection, schedule: Q03HX024 (ip)): 8 of 8
survivor count (dose: 256.0 mg/kg/injection, schedule: Q04DX003 (ip)): 7 of 8 and 8 of 8
survivor count (dose: 256.0 mg/kg/injection, schedule: Q04DX003 (oral)): 8 of 8
survivor count (dose: 256.0 mg/kg/injection, schedule: Q04DX003 (sc)): 8 of 8
survivor count (dose: 256.0 mg/kg/injection, schedule: Q08DX002 (ip)): 8 of 8
survivor count (dose: 512.0 mg/kg/injection, schedule: Q01DX001 (ip)): 8 of 8
survivor count (dose: 512.0 mg/kg/injection, schedule: Q01DX001 (oral)): 8 of 8
survivor count (dose: 512.0 mg/kg/injection, schedule: Q01DX001 (sc)): 8 of 8
survivor count (dose: 512.0 mg/kg/injection, schedule: Q01DX009 (ip)): 5 of 8
survivor count (dose: 512.0 mg/kg/injection, schedule: Q01DX009 (oral)): 0 of 8
survivor count (dose: 512.0 mg/kg/injection, schedule: Q01DX009 (sc)): 4 of 8
survivor count (dose: 512.0 mg/kg/injection, schedule: Q04DX003 (ip)): 8 of 8
survivor count (dose: 512.0 mg/kg/injection, schedule: Q04DX003 (oral)): 8 of 8
survivor count (dose: 512.0 mg/kg/injection, schedule: Q04DX003 (sc)): 8 of 8
survivor count (dose: 512.0 mg/kg/injection, schedule: Q08DX002 (ip)): 8 of 8
survivor count (dose: 1024.0 mg/kg/injection, schedule: Q01DX001 (ip)): 8 of 8
survivor count (dose: 1024.0 mg/kg/injection, schedule: Q01DX001 (oral)): 8 of 8
survivor count (dose: 1024.0 mg/kg/injection, schedule: Q01DX001 (sc)): 7 of 8
survivor count (dose: 1024.0 mg/kg/injection, schedule: Q01DX009 (ip)): 5 of 8
survivor count (dose: 1024.0 mg/kg/injection, schedule: Q01DX009 (oral)): 5 of 8
survivor count (dose: 1024.0 mg/kg/injection, schedule: Q01DX009 (sc)): 4 of 8
survivor count (dose: 1024.0 mg/kg/injection, schedule: Q04DX003 (ip)): 7 of 8
survivor count (dose: 1024.0 mg/kg/injection, schedule: Q04DX003 (sc)): 8 of 8
survivor count (dose: 1024.0 mg/kg/injection, schedule: Q08DX002 (ip)): 8 of 8
